Measurements reported in paper PMC3973595.
These are yes or no findings as the source states them, for the method shown. Some results given as binding are weak or reduced against the parent protein; the word gives no strength.

By UniProt entry, the sequences of proteins in these tests, tags left out. Where a name states a change or a piece, a line headed by the entry shows the natural chain unless it says otherwise.
UniProt P06756: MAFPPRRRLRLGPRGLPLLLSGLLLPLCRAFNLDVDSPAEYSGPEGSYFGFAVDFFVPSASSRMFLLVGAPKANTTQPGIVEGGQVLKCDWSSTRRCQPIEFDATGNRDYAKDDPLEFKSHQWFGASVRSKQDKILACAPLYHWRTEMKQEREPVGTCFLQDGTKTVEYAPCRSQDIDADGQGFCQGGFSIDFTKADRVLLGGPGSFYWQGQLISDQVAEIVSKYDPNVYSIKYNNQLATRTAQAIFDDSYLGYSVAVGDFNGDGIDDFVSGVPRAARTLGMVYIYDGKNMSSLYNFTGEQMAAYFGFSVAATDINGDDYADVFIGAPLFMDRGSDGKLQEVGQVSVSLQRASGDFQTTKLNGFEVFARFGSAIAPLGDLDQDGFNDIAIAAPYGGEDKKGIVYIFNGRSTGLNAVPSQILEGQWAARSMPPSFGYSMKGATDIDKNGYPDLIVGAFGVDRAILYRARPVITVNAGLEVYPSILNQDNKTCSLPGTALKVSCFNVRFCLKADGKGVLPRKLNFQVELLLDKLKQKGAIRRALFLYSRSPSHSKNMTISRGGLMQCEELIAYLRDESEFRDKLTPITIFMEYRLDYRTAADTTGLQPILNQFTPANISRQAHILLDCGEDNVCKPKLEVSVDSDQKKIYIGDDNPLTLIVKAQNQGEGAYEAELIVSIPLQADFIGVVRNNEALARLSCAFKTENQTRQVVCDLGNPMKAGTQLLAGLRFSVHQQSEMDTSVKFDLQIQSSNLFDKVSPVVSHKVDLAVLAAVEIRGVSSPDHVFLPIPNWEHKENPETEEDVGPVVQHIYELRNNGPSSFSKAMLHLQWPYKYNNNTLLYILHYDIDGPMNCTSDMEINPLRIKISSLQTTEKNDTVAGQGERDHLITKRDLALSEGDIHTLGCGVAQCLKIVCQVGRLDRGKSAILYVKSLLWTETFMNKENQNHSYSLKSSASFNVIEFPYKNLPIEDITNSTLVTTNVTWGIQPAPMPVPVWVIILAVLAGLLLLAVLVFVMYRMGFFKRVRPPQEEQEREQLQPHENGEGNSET
UniProt P13612: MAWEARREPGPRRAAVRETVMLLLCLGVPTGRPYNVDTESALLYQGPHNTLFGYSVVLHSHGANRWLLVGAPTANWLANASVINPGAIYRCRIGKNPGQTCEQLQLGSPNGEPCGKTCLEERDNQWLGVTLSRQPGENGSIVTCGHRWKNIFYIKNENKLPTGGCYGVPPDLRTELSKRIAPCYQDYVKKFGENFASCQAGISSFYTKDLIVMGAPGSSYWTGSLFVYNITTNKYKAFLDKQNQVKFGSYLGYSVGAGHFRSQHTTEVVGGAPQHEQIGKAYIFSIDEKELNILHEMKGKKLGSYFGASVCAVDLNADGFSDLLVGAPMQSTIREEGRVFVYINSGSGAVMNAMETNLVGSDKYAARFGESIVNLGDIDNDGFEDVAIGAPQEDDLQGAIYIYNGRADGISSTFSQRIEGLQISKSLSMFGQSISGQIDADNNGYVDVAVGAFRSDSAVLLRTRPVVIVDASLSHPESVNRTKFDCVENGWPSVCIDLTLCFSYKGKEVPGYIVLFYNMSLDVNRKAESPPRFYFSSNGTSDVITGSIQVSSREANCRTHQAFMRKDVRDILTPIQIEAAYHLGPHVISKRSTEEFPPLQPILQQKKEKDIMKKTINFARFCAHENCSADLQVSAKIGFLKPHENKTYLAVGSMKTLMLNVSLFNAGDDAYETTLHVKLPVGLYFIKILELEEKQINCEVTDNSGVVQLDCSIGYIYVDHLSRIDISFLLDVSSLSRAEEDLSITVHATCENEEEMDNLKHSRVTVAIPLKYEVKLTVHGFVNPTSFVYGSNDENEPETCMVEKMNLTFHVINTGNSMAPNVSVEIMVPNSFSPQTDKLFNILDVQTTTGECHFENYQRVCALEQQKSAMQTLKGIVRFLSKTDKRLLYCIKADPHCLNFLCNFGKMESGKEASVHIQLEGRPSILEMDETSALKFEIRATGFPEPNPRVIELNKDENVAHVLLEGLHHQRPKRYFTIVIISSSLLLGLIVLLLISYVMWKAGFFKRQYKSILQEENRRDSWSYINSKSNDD

Molecular target: T1, monomeric C-reactive protein (mCRP) (human) (UniProt P02741)
T1 sequence: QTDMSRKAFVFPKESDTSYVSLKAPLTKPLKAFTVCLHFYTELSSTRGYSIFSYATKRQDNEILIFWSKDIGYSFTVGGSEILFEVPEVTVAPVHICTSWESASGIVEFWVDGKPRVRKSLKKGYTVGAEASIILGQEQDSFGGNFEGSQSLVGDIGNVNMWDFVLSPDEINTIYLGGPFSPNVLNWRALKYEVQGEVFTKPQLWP
Assay: cell adhesion assay; mCRP or pCRP coated on wells, blocked with BSA; U937 cells (10^5 cells/well) for 1 h in RPMI1640; with antagonists: mAb 7E3, SG73, AIIB2 25 μg/ml, cyclic RGDfV 10 μM, BIO1211 1 μM (mCRP coated at 2.5 μM); only the target purified

binding | Substance
binds | integrin αvβ3 on U937 monocytic cells (from UniProt P06756 31-1048; P05106 27-788) (receptor)
binds | integrin α4β1 on U937 monocytic cells (from UniProt P13612 34-1032; P05556 21-798) (receptor)
